Data published in article PMC6289461, “Mek1 coordinates meiotic progression with DNA break repair by directly phosphorylating and inhibiting the yeast pachytene exit regulator Ndt80”.
A weaker result is weaker than the reference pair of the same experiment. Where a protein sequence is shown, tags need not be part of it.

Protein sequences, listed by entry. Tags and fused reporters are not part of them. Lines headed by an entry give the natural chain unless they say otherwise; changes in a name come on top.
UniProt P38830: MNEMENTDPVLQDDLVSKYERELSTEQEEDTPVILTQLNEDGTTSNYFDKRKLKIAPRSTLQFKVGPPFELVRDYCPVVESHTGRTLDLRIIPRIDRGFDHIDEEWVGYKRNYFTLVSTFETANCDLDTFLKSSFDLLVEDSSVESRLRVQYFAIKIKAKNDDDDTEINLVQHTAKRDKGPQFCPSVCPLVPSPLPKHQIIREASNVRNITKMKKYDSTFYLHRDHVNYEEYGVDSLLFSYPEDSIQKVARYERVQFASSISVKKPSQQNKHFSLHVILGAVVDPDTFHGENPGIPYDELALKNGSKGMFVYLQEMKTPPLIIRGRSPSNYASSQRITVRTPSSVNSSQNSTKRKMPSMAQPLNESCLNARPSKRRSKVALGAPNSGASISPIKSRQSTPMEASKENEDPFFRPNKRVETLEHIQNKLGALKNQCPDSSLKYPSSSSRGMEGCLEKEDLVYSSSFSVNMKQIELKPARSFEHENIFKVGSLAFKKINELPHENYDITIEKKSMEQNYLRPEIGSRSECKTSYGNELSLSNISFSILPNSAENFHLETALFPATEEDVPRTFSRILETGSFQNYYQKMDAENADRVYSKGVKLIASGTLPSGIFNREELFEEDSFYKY

Target: T1, 6xHis-Ndt80 5A DBD S24A,S205A,T211A,S327A,S329A (Saccharomyces cerevisiae) (UniProt P38830)
T1 sequence (looked up): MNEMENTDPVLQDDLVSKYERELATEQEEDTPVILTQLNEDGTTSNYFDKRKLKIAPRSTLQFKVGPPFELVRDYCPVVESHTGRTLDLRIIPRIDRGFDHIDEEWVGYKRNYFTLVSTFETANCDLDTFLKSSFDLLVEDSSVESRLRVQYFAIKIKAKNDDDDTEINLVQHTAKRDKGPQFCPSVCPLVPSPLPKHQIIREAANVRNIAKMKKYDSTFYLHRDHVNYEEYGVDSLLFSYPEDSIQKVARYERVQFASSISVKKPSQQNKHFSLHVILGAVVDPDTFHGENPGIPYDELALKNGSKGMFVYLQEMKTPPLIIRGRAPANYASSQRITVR
Experiment: EMSA
Settings: 50 nM DBD, 50 nM duplex, less efficient than WT; EMSA: 10 mM Tris-HCl pH 7.5, 40 mM NaCl, 4 mM MgCl2, 6% glycerol, 10 mg/ml BSA, 10 ug/ml sonicated salmon sperm DNA; 20 ul, room temperature, 30 min; 6% PAGE in 0.5X TBE; recombinant protein; residues 1-340; protein details: N-terminal 6xHis (pET-28a); label: 5' Cy3 on strand 1

Q: Does “ATTGACGCGCGCCACAAAAACGTATCATT (double strand) [Cy3-MSE (SPS4 MSE duplex)]” bind?
A: binds more weakly
